Results: US20250115828A1, “INACTIVATING AGENT FOR ENVELOPED VIRUSES” (priority 2022, published 2025)
Some of these results come from one statement about several compounds together. At least one structure is not confirmed: it was looked up by name or label, or the drawing left a doubt.

Test: Krafft point measurement with rhodamine 6G
Type: physicochemical
Conditions: 0.2 mass % in ion exchange water
Description: A krafft point of component (a) or (a′) was measured by the method below.
A solution obtained by diluting component (a) or (a′) with ion exchange water to attain a total amount of 5 mL and a concentration of 0.2 mass % was prepared and placed in a glass test tube, and the fluorescent dye rhodamine 6G (FUJIFILM Wako Pure Chemical Corporation) was then added to attain a final concentration of 0.02 mM. After the test tube was placed in an ice bath to condition a temperature at 5° C., the temperature was raised at a temperature rise rate of 0.5° C./min, and a temperature at which the solution emitted fluorescence was taken as the krafft point. Component (a) or (a′) which had emitted fluorescence at 5° C. was considered to have a krafft point of less than 5° C.

Compound | krafft point
CCCCCCCCCCCCOS(=O)(=O)[O-].[Na+] [(a′-4), sodium alkyl sulfate with 12 carbons] | less than 5 °C
sodium di(2-propylheptyl)sulfosuccinate [(a-1)] | less than 5 °C
